The nature of this test: qHTS Assay for Lipid Storage Modulators in Drosophila S3 Cells.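 On cell number change: cells counted by Cell Tracker Red CMTPX staining in the red channel.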 To be noted: BODIPY lipid droplet fluorescence, 18-24 h; for cell number change: measured here: cell count max response, cells fed with added oleic acid. The gist of the method: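 Laser-scanning cytometry quantifies lipid droplet accumulation (500–530 nm total intensity; droplet/cell object ratio) in oleic acid-fed (400 uM added) Drosophila S3 cells treated with a concentration series. 20 uM Triacsin C defined 100% inhibition.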
(In general: qHTS replaces the single test concentration by a dilution series.)

Setting [1] is: measured here: lipid fluorescence (Fed channel) AC50, cells fed with added oleic acid.
Setting [2] is: measured here: cell number channel AC50, cells fed with added oleic acid.

What is called AC50 is the midpoint of the concentration-response curve, whichever way the signal moves. Low readings indicate greater potency, high ones weaker potency.

Each structure is given as a SMILES string. This is one part of the list. Shown are side measurements of this screen, not its main read-out; they come without a call. Most of these compounds were active or inconclusive in the main read-out, so they are no random draw. The note in brackets gives the kind of curve behind each potency; many fits are weak.

As for `CCCCCC1CCC(c2nnc(SCC(C)=O)o2)CC1` (configuration not stated), the cell number change is -15%. Under setting [1], the concentration at half-maximal activity (AC50) is 6510 nM [falling, single point]. Consider `CCCCNC(=O)C1CCC(CNS(=O)(=O)c2ccc(C)cc2)CC1` (configuration not stated), for which, under setting [1], the half-maximal activity concentration (AC50) was 2910 nM [falling, partial curve]. On to `Cc1cccc(NC(=S)NCC(c2cccnc2)N2CCOCC2)c1C` (configuration not stated), for which the cell number change worked out at 19.4%. In addition, the AC50 under setting [1] is 731 nM [rising, partial curve, poor fit]. Take `COc1ccc(C)cc1N(CC(=O)N1CCCCCC1)S(=O)(=O)c1ccc(C)cc1`: the cell number change was 7.04%. Further, under setting [1], the AC50 is 16.4 nM [falling, full curve, poor fit]. `CCC(C)N1CC(C(=O)NC2CCCCC2)CC1=O` (configuration not stated): the cell number change was found to be 23.2%. The concentration at half-maximal activity (AC50) under setting [2] was 1640 nM [rising, full curve, poor fit]. Moreover, the concentration at half-maximal activity (AC50) under setting [1] is 14600 nM [rising, partial curve]. `COc1ccc(N2CCN(C(CNC(=O)C3CCCCC3)c3ccco3)CC2)cc1` (configuration not stated): the AC50 under setting [1] is 164 nM [falling, full curve, poor fit]. Still for that read-out and setting: with `COc1ccc(NC(=O)C(OC)c2ccccc2)cc1Cl` (configuration not stated) the figure was 13000 nM [rising, partial curve, poor fit]. On to `CCOc1ccc(-n2cnc3sc4c(c3c2=O)CCCC4)cc1`, for which the cell number change was determined as 9.07%. In addition, the half-maximal activity concentration (AC50) under setting [2] is 164 nM [rising, full curve, poor fit]. For the same compound, under setting [1], the AC50 is 6510 nM [rising, partial curve, poor fit]. As to `CC(C)(C)[C@H]1CCC(=O)N([C@H](CSc2ccc(Br)cc2)Cc2ccccc2)CC1`, the cell number change was determined as 7.43%. In addition, the AC50 under setting [1] is 20600 nM [rising, single point]. Regarding `O=C(NC(=S)NC1CCCCC1)c1ccc(F)cc1`, the cell number change came out at 28.1%. The half-maximal activity concentration (AC50) under setting [1] is 2310 nM [rising, partial curve, poor fit]. For `COc1ccc(-c2noc(CCC(=O)Nc3nc4ccccc4s3)n2)cc1`, the cell number change is -13.3%. Moreover, under setting [1], the half-maximal activity concentration (AC50) was 130 nM [falling, full curve, poor fit]. Take `CCCOC(=O)C1C2C=CC(C3CC23)C1C(=O)OCC(=O)c1ccccc1` (configuration not stated): the cell number change is 39.3%. The concentration at half-maximal activity (AC50) under setting [2] is 25900 nM [rising, single point]. Turning to `Cc1c(C(=O)OC(C)C)sc2nc[nH]c(=O)c12`, the cell number change was -28.1%. The half-maximal activity concentration (AC50) under setting [1] was 130 nM [falling, full curve, poor fit].

With `CC(=O)c1ccc(OCCCC(=O)N2CCN(S(=O)(=O)c3ccc(C(C)C)cc3)CC2)cc1`, under setting [2], the AC50 is 2910 nM [rising, single point]. For `CC(C)CN1CCN(Cc2ccc3ncccc3c2)CC1CCO` (configuration not stated), the cell number change was determined as 10.1%. Under setting [1], the AC50 is 25900 nM [rising, single point]. Take `CC(=O)c1ccc(-c2cc([C@H]3[C@H]4C=CC[C@@H](C)[C@@H]4C(=O)N3Cc3ccccc3)ccc2F)cc1`: the cell number change is -19.6%. For the same compound, the AC50 under setting [1] was 18400 nM [falling, single point]. Turning to `CN(Cc1ccc(C(C)(C)C)cc1)C(=O)C1CSC2(C)CCC(=O)N12` (configuration not stated), the cell number change turned out to be 38.8%. Moreover, under setting [2], the AC50 is 32600 nM [rising, single point]. Under setting [1], the half-maximal activity concentration (AC50) was 1640 nM [rising, partial curve]. On to `Cc1csc(SCC(=O)Nc2nc3ccccc3s2)n1`, for which the cell number change was determined as 3.11%. Turning to `CCn1c(=O)[nH]c2cc(C(=O)N3CCN(c4ccccc4)CC3)ccc2c1=O`, the cell number change was determined as 12.2%. Also, the AC50 under setting [1] is 29100 nM [falling, single point]. `CCCCCCOc1ccc(N2C(=O)CC(N3CCN(CCN=CC4=C(O)CC(C)(C)CC4=O)CC3)C2=O)cc1` (configuration not stated): the cell number change is -30.6%. In addition, the AC50 under setting [1] was 4.61 nM [falling, full curve, poor fit]. `COc1ccc(/C=N/n2c(=O)[nH]c3c([nH]c4ccc(F)cc43)c2=O)cc1CN1CCCCC1`: the cell number change amounted to 18.3%. Besides, the concentration at half-maximal activity (AC50) under setting [2] was 7310 nM [falling, partial curve, poor fit]. Regarding `Cc1cc(N2CCN(C)CC2)n2nc(-c3ccc(Cl)cc3)nc2n1`, the cell number change is 9.59%. Also, the concentration at half-maximal activity (AC50) under setting [1] was 517 nM [rising, full curve, poor fit]. `C/C(=N/NC(N)=S)c1cc2ccc(O)cc2oc1=O`: the cell number change was -15.3%. Under setting [2], the AC50 was 2060 nM [falling, partial curve, poor fit]. The AC50 under setting [1] is 651 nM [falling, full curve]. As to `CCOc1ccc(CCn2c(-c3ccco3)nc3ccccc3c2=O)cc1OCC`, the cell number change is -13.8%. Under setting [1], the half-maximal activity concentration (AC50) is 1640 nM [rising, partial curve].

Turning to `Cc1sc2ncnc(SCC(=O)Nc3nc(-c4ccc(F)c(F)c4)cs3)c2c1C`, the cell number change was -16.5%. Besides, under setting [1], the AC50 was 29100 nM [falling, single point].

Take `CN(Cc1ccccc1)Cc1nc2c(c(=O)n(C)c(=O)n2C)n1Cc1ccc(Cl)cc1`: the AC50 reads like this: under setting [2], 1840 nM [rising, partial curve]; under setting [1], 1640 nM [rising, partial curve].

Consider `COc1ccc2[nH]c3c(=O)n(CCCC(=O)NC4CCC(C)CC4)c(=S)[nH]c3c2c1` (configuration not stated), for which the half-maximal activity concentration (AC50) under setting [1] was 3660 nM [falling, single point]. Consider `CCCNC(=O)C(=O)Nc1ccc2c(c1)N(S(=O)(=O)c1cccs1)CCC2`, for which the cell number change was -2.02%. Moreover, the half-maximal activity concentration (AC50) under setting [2] was 461 nM [rising, single point]. In the case of `COC(=O)Cn1cnc(=O)c(C#N)c1/C=C/N(C)C`, the cell number change is -14.9%. For the same compound, the AC50 under setting [2] was 731 nM [falling, full curve, poor fit]. On to `CCOc1ccc(NC(=O)C2CCC(N3C(=O)C4CC=CCC4C3=O)CC2)cc1` (configuration not stated), for which the cell number change was -12.1%. In the case of `CCCCOC(=O)C1[C@H]2C(=O)N(CCc3ccccc3)C[C@]23C=C[C@H]1O3` (some centres not stated), the cell number change is -4.4%. In addition, the half-maximal activity concentration (AC50) under setting [1] is 29100 nM [rising, single point]. On to `O=c1[nH]nc(SCCS(=O)(=O)c2ccc(F)cc2)n1-c1ccccc1`, for which the cell number change amounted to 11.7%. Moreover, the concentration at half-maximal activity (AC50) under setting [1] is 1640 nM [rising, full curve, poor fit]. On to `CCOC(=O)c1cnn(Cc2ccc(C)cc2)c1N`, for which the cell number change stood at 38.7%. In the case of `Cc1c(C(=O)NCCN(C)C)oc2ccc(S(=O)(=O)N3CCCC3)cc12`, the half-maximal activity concentration (AC50) under setting [1] is 164 nM [falling, full curve]. Take `Cc1c(C=N)c(O)n(C)c(=O)c1C#N`: the cell number change came to 4.35%. For the same compound, under setting [1], the AC50 was 130 nM [falling, full curve, poor fit]. In the case of `CCOC(=O)CSc1nc(C(C)(C)C)cc(C(F)(F)F)c1C#N`, the cell number change was -12.5%. Also, the half-maximal activity concentration (AC50) under setting [1] was 25900 nM [falling, partial curve]. In the case of `Cn1c(=O)n(C)c2cc(NC(=O)COc3ccccc3)ccc21`, the cell number change was -22.9%. The same measure, in the same setting: then `COc1cc(CCC(=O)OCC(=O)Nc2sccc2C(N)=O)cc(OC)c1OC`, with 202%. As to `COc1ccccc1-c1nnc2sc(-c3ccc(N(C)C)cc3)nn12`, the cell number change is -5.77%. Besides, the half-maximal activity concentration (AC50) under setting [1] was 1640 nM [falling, partial curve, poor fit]. `COc1ccc(N(CC(=O)Nc2cccnc2)S(=O)(=O)c2ccc(C)cc2)cc1Cl`: the cell number change came out at 13%. Besides, the AC50 under setting [1] is 820 nM [rising, full curve]. In the case of `COc1ccc(CCC(=O)NNC(=O)Nc2ccc(C(C)=O)cc2)cc1`, the cell number change amounted to 7.33%. For the same compound, under setting [1], the half-maximal activity concentration (AC50) was 4110 nM [rising, single point]. For the compound `O=C(NCc1ccncc1)C(=O)NCC1OCCCN1S(=O)(=O)c1ccccc1` (configuration not stated), the cell number change came to 10.2%. The same measure, in the same setting: then `NS(=O)(=O)c1ccc(NCC2COc3ccccc3O2)c([N+](=O)[O-])c1` (configuration not stated), with -15.6%. The same measure, in the same setting: then `CC(NC(=O)C(=S)N1CCN(C)CC1)c1ccccc1` (configuration not stated), with 19.9%. On to `Cc1cc(S(=O)(=O)N2CCCOC2CNC(=O)C(=O)NCc2cccs2)ccc1F` (configuration not stated), for which the cell number change amounted to 13.6%. Under setting [1], the AC50 was 5.8 nM [rising, full curve, poor fit]. Regarding `Cc1nc2ccc(NC(=O)Cc3ccsc3)cc2s1`, the cell number change stood at 11.7%. Besides, the concentration at half-maximal activity (AC50) under setting [1] was 164 nM [rising, full curve, poor fit].

As for `COc1ccc(/C=N/Nc2cc(N3CCOCC3)nc(C)n2)c(OC)c1`, the cell number change was -51.4%. Further, under setting [2], the AC50 was 5170 nM [falling, partial curve, poor fit]. On to `CC(Sc1nc2ccc(C(=O)c3ccccc3)cc2[nH]1)C(=O)O` (configuration not stated), for which the cell number change is -2.47%. Moreover, the AC50 under setting [1] was 6510 nM [falling, single point]. Consider `Cc1nnc(-c2cnn(C)c2N)n1Cc1cccc(Cl)c1`, for which the cell number change stood at 30.3%. Besides, the concentration at half-maximal activity (AC50) under setting [2] was 2060 nM [rising, full curve, poor fit]. As to `COC(=O)c1cnn2c1C(=O)N(Cc1cccs1)CC2`, the cell number change was -28.7%. In addition, under setting [2], the AC50 was 116 nM [falling, full curve]. Also, the AC50 under setting [1] was 16400 nM [falling, single point]. `CCOC(=O)/C=C1\SCC(=O)N1CC(=O)NCCOC`: the cell number change was -47.9%. Further, under setting [2], the AC50 was 29100 nM [falling, single point]. For the compound `CC(C)=C(NC(=O)c1ccccc1)C(=O)NCCc1nc2ccccc2[nH]1`, the cell number change amounted to 10.6%. On to `Cc1ccc(C)c(N2CCN(C(=O)CSc3ccsc3[N+](=O)[O-])CC2)c1`, for which the cell number change is 7.16%. Besides, the concentration at half-maximal activity (AC50) under setting [1] is 6.51 nM [rising, full curve, poor fit]. Consider `Cc1ccc([N+](=O)[O-])c(C)[n+]1C`, for which the cell number change was -75.7%. For the same compound, the concentration at half-maximal activity (AC50) under setting [1] is 820 nM [falling, full curve]. With `Cc1csc2c(=O)n(CCO)c(=O)[nH]c12`, the cell number change was -15.8%. For the same compound, the AC50 under setting [1] is 32.6 nM [falling, full curve, poor fit].

On to `CCOc1cc(CNS(=O)(=O)c2cn(C)cn2)cc(OCC)c1OCC`, for which the cell number change was -33.1%. In addition, the AC50 under setting [2] was 4110 nM [falling, partial curve, poor fit]. Besides, the AC50 under setting [1] is 6510 nM [falling, single point]. As to `CCC1(c2ccc(OC)cc2)NC(=O)N(CC(=O)NC2CCCCC2C)C1=O` (configuration not stated), the cell number change was 30.4%. Also, the AC50 under setting [2] is 1300 nM [falling, partial curve]. For `CCOC(=O)CSc1nc2sccc2c(=O)[nH]1`, the cell number change was -33.4%. The AC50 under setting [2] was 29100 nM [falling, single point]. In addition, the AC50 under setting [1] is 29100 nM [falling, single point]. `CCC(C)N(C(=O)CSc1nc(C)c(C)c(C)c1C#N)C1CCS(=O)(=O)C1` (configuration not stated): the cell number change is -8.82%.

With `C/C(Cl)=C/Cn1c(=O)c2c(nc(Br)n2Cc2ccccc2)n(C)c1=O`, the cell number change amounted to 45.5%. Moreover, under setting [2], the AC50 is 3260 nM [rising, full curve]. In addition, the half-maximal activity concentration (AC50) under setting [1] was 29100 nM [rising, single point].

Values taken from PubChem BioAssay AID2685 (National Center for Advancing Translational Sciences (NCATS), 2010).
